Assay results taken from article doi:10.1101/040410.
Results are given in words; binding and its absence hold for the method and conditions named. In cells and extracts the contact can be indirect. Some entries that bind do so weakly or less than the wild type. For part of these data: Tags and fused reporters may be left off the sequences shown.

By UniProt entry, the sequences of proteins in these tests, tags left out. Where a name states a change or a piece, a line headed by the entry shows the natural chain unless it says otherwise. Residues count along the entry.
UniProt P01135, 24-160: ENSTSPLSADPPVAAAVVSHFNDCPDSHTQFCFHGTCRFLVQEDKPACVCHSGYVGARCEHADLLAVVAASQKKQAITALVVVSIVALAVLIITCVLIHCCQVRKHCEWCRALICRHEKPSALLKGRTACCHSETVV
UniProt P01135, whole entry, looked up, stated change not applied: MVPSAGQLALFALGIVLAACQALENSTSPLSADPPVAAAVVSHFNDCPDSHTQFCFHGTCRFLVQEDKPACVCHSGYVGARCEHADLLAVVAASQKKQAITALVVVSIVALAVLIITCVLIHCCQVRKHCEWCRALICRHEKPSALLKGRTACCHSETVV

Experiments:
Test in all cases: co-IP
HA-Vangl2 = molecular target: T1, HA-Vangl2 (UniProt Q91ZD4)
T1 sequence: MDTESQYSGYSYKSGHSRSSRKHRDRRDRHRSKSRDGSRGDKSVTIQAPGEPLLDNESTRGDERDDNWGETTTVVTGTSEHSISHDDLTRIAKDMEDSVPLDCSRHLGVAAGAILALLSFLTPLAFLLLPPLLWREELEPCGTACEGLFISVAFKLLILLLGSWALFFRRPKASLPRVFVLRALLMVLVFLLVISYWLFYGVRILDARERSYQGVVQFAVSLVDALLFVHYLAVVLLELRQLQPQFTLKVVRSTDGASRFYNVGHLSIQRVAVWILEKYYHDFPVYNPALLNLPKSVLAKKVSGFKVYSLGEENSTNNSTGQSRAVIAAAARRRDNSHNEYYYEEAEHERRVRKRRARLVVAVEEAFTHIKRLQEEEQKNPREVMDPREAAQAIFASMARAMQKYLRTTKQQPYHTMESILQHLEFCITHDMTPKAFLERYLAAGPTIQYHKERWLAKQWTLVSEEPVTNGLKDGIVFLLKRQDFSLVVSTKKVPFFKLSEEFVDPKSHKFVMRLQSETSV

pro/HA-TGFα V160G mutant = pro/HA-TGFα V160G mutant (UniProt P01135)
[1] = molecular target: pro/HA-TGFα wild type (HA-tagged transmembrane precursor of transforming growth factor alpha) (UniProt P01135)

- binding (HA-Vangl2): no binding
- binding (pro/HA-TGFα V160G mutant): binds
- binding [1]: binds
B1: Cornichon-1 (protein, UniProt O95406 1-144)
chain: MAFTFAAFCYMLALLLTAALIFFAIWHIIAFDELKTDYKNPIDQCNTLNPLVLPEYLIHAFFCVMFLCAAEWLTLGLNMPLLAYHIWRYMSRPVMSGPGLYDPTTIMNADILAYCQKEGWCKLAFYLLAFFYYLYGMIYVLVSS
